Measurements taken from US6001802A, “Platelet-derived growth factor analogues” (Trigen Limited, priority 1993, dated 1999).
Not every detail of the peptide structures is certain; ends, links or a residue may be inferred. Where no end group is shown, it is not given here.

Protein sequences, listed by entry. Tags and fused reporters are not part of them. Residues count along the entry.
UniProt P01133, 971-1023 limits assumed: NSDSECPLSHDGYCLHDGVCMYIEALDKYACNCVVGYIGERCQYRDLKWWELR

Molecular target: T1, epidermal growth factor (EGF) (Homo sapiens, UniProt P01133)
T1 construct: epidermal growth factor (EGF)
Assay: ELISA titration of anti-Tg-GP4 antiserum vs EGF
Format: binding
Conditions: one of the rabbits immunised with GP4; FIG. 4

Ac-ISRRLIDRTNANFLC [GP4, Ac-^25 I-S-R-R-L-I-D-R-T-N-A-N-F-L^38 -C]
cross reactivity of antibodies with EGF: no cross reactivity
